Reference: publication PMC8001349

Molecular target: T1, OsABI5 fused to cEYFP (rice (Oryza sativa L.)) (UniProt Q8RZ35)
T1 sequence: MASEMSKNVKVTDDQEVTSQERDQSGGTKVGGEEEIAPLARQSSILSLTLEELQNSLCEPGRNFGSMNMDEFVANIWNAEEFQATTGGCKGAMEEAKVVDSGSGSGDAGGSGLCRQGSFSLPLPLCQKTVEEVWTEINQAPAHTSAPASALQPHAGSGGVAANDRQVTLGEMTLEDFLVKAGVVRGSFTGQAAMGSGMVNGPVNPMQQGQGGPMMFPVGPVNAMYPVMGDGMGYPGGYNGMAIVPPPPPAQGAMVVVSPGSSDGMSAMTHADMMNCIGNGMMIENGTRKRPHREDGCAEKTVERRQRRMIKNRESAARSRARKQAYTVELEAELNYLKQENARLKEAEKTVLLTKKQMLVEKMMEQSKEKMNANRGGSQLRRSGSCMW
Assay: split reporter; BiFC with EYFP halves, transient co-expression in rice protoplasts, 12-16 h in W5 solution in darkness, confocal microscopy, NLS-mCherry as nucleus marker

- binding: binds
Substance: Kelch repeat domain of OsKEAP1 (OsKelch) fused to nEYFP (from UniProt Q5VQH0) (domain or fragment)

No constants are given. Whether binding was seen depends on the method and setting. In cells and extracts the contact can be indirect. A result given as binding can be weak or reduced; the word gives no strength. Tags and fused reporters may be left off the sequences shown.
